Measurements taken from doi:10.1101/2020.08.06.240739.
No constants are given. Whether binding was seen depends on the method and setting. In cells and extracts the contact can be indirect. Some binding calls cover weakened binding; strength is not graded here. For some of these results: Where a sequence is shown, tags or fusion partners need not be part of it. Values belong to the molecule of their own block, whether it stands above or below them.

By UniProt entry, the sequences of proteins in these tests, tags left out. Where a name states a change or a piece, a line headed by the entry shows the natural chain unless it says otherwise.
UniProt O96017, whole entry: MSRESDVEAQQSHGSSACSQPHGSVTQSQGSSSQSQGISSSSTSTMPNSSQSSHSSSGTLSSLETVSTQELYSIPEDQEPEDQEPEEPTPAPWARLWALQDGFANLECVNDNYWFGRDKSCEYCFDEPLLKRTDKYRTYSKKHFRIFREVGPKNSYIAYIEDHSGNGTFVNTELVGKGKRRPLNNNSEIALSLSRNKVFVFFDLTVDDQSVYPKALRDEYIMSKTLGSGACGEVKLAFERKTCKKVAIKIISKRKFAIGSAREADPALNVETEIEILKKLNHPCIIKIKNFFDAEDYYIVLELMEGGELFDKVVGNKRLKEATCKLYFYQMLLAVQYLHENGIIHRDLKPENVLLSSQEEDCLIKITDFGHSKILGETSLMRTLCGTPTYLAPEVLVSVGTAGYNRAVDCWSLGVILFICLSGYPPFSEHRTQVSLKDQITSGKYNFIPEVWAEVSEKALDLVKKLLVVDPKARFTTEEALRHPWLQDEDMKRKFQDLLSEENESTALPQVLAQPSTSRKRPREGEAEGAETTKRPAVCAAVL

Assays:
[1] = molecular target: CHK2, Flag-tagged and Myc-tagged copies co-expressed (UniProt O96017); test: co-IP
[2] = molecular target: T1, HA-tagged OGT (O-GlcNAc transferase), full length (UniProt O15294); test: co-IP
T1 sequence: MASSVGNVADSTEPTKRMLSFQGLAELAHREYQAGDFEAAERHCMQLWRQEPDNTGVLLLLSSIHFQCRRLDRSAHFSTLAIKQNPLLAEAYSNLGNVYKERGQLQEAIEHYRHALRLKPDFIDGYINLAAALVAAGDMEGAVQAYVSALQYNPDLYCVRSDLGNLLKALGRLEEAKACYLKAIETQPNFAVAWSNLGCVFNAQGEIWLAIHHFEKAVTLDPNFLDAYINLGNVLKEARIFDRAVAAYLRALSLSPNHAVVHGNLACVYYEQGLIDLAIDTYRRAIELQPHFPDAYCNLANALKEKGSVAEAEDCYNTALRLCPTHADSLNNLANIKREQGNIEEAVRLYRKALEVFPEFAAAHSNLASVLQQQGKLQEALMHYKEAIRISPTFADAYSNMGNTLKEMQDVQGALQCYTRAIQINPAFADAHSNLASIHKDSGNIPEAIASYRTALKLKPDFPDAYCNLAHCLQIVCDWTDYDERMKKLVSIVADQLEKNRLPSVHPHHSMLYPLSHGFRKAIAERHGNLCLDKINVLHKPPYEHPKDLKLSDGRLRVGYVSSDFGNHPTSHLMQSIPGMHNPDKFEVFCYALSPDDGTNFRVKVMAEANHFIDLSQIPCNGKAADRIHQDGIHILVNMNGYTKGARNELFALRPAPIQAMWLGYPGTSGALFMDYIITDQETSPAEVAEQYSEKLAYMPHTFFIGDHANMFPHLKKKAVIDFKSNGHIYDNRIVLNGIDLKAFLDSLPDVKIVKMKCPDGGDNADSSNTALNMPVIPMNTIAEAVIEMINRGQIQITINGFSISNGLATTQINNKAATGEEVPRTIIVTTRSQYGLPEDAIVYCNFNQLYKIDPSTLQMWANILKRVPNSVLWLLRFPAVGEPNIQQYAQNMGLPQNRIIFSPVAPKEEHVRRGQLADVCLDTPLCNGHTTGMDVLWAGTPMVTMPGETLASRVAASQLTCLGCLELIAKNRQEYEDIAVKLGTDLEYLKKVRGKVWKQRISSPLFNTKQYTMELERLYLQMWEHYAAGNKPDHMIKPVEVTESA

[3] = molecular target: T2, O-GlcNAc transferase (OGT), endogenous (human (endogenous in PLC/PRF/5)) (UniProt O15294); test: co-IP
T2 sequence: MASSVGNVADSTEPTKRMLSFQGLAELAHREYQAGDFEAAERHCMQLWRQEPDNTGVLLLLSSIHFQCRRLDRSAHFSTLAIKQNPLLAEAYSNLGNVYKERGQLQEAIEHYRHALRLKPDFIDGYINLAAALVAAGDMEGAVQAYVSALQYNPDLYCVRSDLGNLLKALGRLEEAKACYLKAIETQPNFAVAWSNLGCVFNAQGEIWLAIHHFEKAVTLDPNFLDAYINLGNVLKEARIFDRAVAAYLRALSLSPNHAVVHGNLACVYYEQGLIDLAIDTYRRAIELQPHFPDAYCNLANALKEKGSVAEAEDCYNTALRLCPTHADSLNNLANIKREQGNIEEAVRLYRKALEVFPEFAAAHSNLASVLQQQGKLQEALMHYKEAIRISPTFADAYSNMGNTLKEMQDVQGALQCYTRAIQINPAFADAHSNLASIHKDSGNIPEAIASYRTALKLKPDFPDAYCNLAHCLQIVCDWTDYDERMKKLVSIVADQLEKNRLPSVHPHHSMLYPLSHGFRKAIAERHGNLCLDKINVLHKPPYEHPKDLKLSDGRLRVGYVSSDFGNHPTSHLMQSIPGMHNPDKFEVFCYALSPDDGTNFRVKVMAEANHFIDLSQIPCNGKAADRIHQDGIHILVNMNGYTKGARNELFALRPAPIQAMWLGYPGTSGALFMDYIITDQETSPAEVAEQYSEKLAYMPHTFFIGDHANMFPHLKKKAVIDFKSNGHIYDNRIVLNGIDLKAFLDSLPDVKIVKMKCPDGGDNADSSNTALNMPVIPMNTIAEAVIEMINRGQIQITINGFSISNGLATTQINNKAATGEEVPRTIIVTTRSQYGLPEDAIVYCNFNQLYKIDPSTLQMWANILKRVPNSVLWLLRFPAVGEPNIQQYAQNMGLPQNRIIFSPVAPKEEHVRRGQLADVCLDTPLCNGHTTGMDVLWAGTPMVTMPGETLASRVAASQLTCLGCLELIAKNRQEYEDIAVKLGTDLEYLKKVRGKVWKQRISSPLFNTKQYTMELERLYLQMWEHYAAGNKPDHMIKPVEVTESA

[4] = molecular target: checkpoint kinase 2 (CHK2), endogenous (human (endogenous in PLC/PRF/5)) (UniProt O96017); test: cross-linking
[5] = molecular target: Flag-tagged CHK2, full length (aa 1-543) (UniProt O96017); test: co-IP

Molecule: Flag-tagged CHK2 ΔN truncation mutant (aa 69-543) (from UniProt O96017-1 69-543) (domain or fragment)
binding [2]: binds

Molecule: Flag-tagged CHK2, full length (aa 1-543) (from UniProt O96017-1 1-543)
binding [2]: binds

B1: HA-tagged OGT (O-GlcNAc transferase), full length (protein, UniProt O15294-1 1-1046)
chain: MASSVGNVADSTEPTKRMLSFQGLAELAHREYQAGDFEAAERHCMQLWRQEPDNTGVLLLLSSIHFQCRRLDRSAHFSTLAIKQNPLLAEAYSNLGNVYKERGQLQEAIEHYRHALRLKPDFIDGYINLAAALVAAGDMEGAVQAYVSALQYNPDLYCVRSDLGNLLKALGRLEEAKACYLKAIETQPNFAVAWSNLGCVFNAQGEIWLAIHHFEKAVTLDPNFLDAYINLGNVLKEARIFDRAVAAYLRALSLSPNHAVVHGNLACVYYEQGLIDLAIDTYRRAIELQPHFPDAYCNLANALKEKGSVAEAEDCYNTALRLCPTHADSLNNLANIKREQGNIEEAVRLYRKALEVFPEFAAAHSNLASVLQQQGKLQEALMHYKEAIRISPTFADAYSNMGNTLKEMQDVQGALQCYTRAIQINPAFADAHSNLASIHKDSGNIPEAIASYRTALKLKPDFPDAYCNLAHCLQIVCDWTDYDERMKKLVSIVADQLEKNRLPSVHPHHSMLYPLSHGFRKAIAERHGNLCLDKINVLHKPPYEHPKDLKLSDGRLRVGYVSSDFGNHPTSHLMQSIPGMHNPDKFEVFCYALSPDDGTNFRVKVMAEANHFIDLSQIPCNGKAADRIHQDGIHILVNMNGYTKGARNELFALRPAPIQAMWLGYPGTSGALFMDYIITDQETSPAEVAEQYSEKLAYMPHTFFIGDHANMFPHLKKKAVIDFKSNGHIYDNRIVLNGIDLKAFLDSLPDVKIVKMKCPDGGDNADSSNTALNMPVIPMNTIAEAVIEMINRGQIQITINGFSISNGLATTQINNKAATGEEVPRTIIVTTRSQYGLPEDAIVYCNFNQLYKIDPSTLQMWANILKRVPNSVLWLLRFPAVGEPNIQQYAQNMGLPQNRIIFSPVAPKEEHVRRGQLADVCLDTPLCNGHTTGMDVLWAGTPMVTMPGETLASRVAASQLTCLGCLELIAKNRQEYEDIAVKLGTDLEYLKKVRGKVWKQRISSPLFNTKQYTMELERLYLQMWEHYAAGNKPDHMIKPVEVTESA
binding [5]: binds

Second part, the molecule after the results:

binding [1]: binds
Molecule: CHK2, Flag-tagged and Myc-tagged copies co-expressed (from UniProt O96017-1 1-543)

binding [2]: no binding
Molecule: Flag-tagged CHK2 ΔC truncation mutant (aa 1-221) (from UniProt O96017-1 1-221) (domain or fragment)

binding [3]: binds
binding [4]: binds
Molecule: checkpoint kinase 2 (CHK2), endogenous (from UniProt O96017 1-543)
